Measurements reported in PubChem BioAssay AID602196 (INSERM, 2012).
In all, the deposit lists about 23,000 reagents; this is a random part of them. 455 of them (2%) were called active. 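Active includes both protection and sensitisation; some change values fall well beyond the stated -50 to +50 range.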 A number with no mark means an inactive call. Not all columns of the deposit are shown. The record does not give: the amount of reagent.

Assay: 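Knock-downs that protect lung cancer cells from cisplatin or sensitise them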
Cell system: human A549 lung cancer cells
Knock-down reagent: siRNA pair against human genes
Duration: 48 h transfection before cisplatin; time from cisplatin to read-out not stated
Treatment: cisplatin at a dose killing half of control-siRNA cells; exact dose and duration not given
Measured: 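Cisplatin cell death as a shift from the 50% death seen with control siRNA; siRNAs toxic or growth-blocking alone scored 0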
Direction: two-siRNA summed score (-2 to +2): higher = both siRNAs protect from cisplatin killing; -2 means both sensitise; mean protection from cisplatin (shift in death): higher = protection from cisplatin killing
Active means: 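Each siRNA scores 0 if harmful alone by LDH or WST-1, otherwise +1 if it reduces and -1 if it increases cisplatin killing; a gene is active when both siRNAs agree (sum +2 or -2)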
Meaning of the calls: active = both siRNAs shift cisplatin killing the same way; inactive = no consistent shift, or siRNA harmful alone

DHX8 — two-siRNA summed score (-2 to +2): 0; mean protection from cisplatin (shift in death) (%): 9.4
LOC92312 — two-siRNA summed score (-2 to +2): 1; mean protection from cisplatin (shift in death) (%): 23
RBMS1 — two-siRNA summed score (-2 to +2): 0; mean protection from cisplatin (shift in death) (%): 14.2
KCNJ3 — two-siRNA summed score (-2 to +2): 0; mean protection from cisplatin (shift in death) (%): 4.5
LOC441162 — two-siRNA summed score (-2 to +2): 0; mean protection from cisplatin (shift in death) (%): 1.6
ANKRD39 — two-siRNA summed score (-2 to +2): 0; mean protection from cisplatin (shift in death) (%): 10.9
KRTAP26-1 — two-siRNA summed score (-2 to +2): 0; mean protection from cisplatin (shift in death) (%): 0.7
TMEM154 — two-siRNA summed score (-2 to +2): 0; mean protection from cisplatin (shift in death) (%): 8.6
LOC148490 — two-siRNA summed score (-2 to +2): 1; mean protection from cisplatin (shift in death) (%): 10.9
DAXX — two-siRNA summed score (-2 to +2): 1; mean protection from cisplatin (shift in death) (%): 7.2
ENTHD1 — two-siRNA summed score (-2 to +2): 0; mean protection from cisplatin (shift in death) (%): 6
CHIA — two-siRNA summed score (-2 to +2): 0; mean protection from cisplatin (shift in death) (%): 3.1
RETREG3 — two-siRNA summed score (-2 to +2): 0; mean protection from cisplatin (shift in death) (%): 4.1
ADAMTS16 — two-siRNA summed score (-2 to +2): 0; mean protection from cisplatin (shift in death) (%): 1.7
MOXD1 — two-siRNA summed score (-2 to +2): -1; mean protection from cisplatin (shift in death) (%): -16.4
LOC400046 — two-siRNA summed score (-2 to +2): 0; mean protection from cisplatin (shift in death) (%): 10.7
LOC387883 — two-siRNA summed score (-2 to +2): 0; mean protection from cisplatin (shift in death) (%): 11.3
CENPBD2P — two-siRNA summed score (-2 to +2): 0; mean protection from cisplatin (shift in death) (%): 7.2
SPINK4 — two-siRNA summed score (-2 to +2): 0; mean protection from cisplatin (shift in death) (%): 2.9
TRMT61A — two-siRNA summed score (-2 to +2): 1; mean protection from cisplatin (shift in death) (%): 24.6
FAM185A — two-siRNA summed score (-2 to +2): 0; mean protection from cisplatin (shift in death) (%): 5.1
MINDY2 — two-siRNA summed score (-2 to +2): 0; mean protection from cisplatin (shift in death) (%): -5.1
LOC118945 — two-siRNA summed score (-2 to +2): 0; mean protection from cisplatin (shift in death) (%): 16.5
TMEM248 — two-siRNA summed score (-2 to +2): 0; mean protection from cisplatin (shift in death) (%): 9.7
HES5 — two-siRNA summed score (-2 to +2): 0; mean protection from cisplatin (shift in death) (%): 1.1
LOC440675 — two-siRNA summed score (-2 to +2): 1; mean protection from cisplatin (shift in death) (%): 21.5
LRMDA — two-siRNA summed score (-2 to +2): 1; mean protection from cisplatin (shift in death) (%): 15.3
ARNT2 — two-siRNA summed score (-2 to +2): 0; mean protection from cisplatin (shift in death) (%): -14.5
LOC441103 — two-siRNA summed score (-2 to +2): 0; mean protection from cisplatin (shift in death) (%): 9.2
PDS5B — two-siRNA summed score (-2 to +2): 0; mean protection from cisplatin (shift in death) (%): -0.2
LOC401236 — two-siRNA summed score (-2 to +2): 0; mean protection from cisplatin (shift in death) (%): 12.4
LOC441877 — two-siRNA summed score (-2 to +2): 1; mean protection from cisplatin (shift in death) (%): 14.4
PLAAT5 — two-siRNA summed score (-2 to +2): 0; mean protection from cisplatin (shift in death) (%): 10.1
CA5B — two-siRNA summed score (-2 to +2): 0; mean protection from cisplatin (shift in death) (%): -2.4
HRH3 — two-siRNA summed score (-2 to +2): 0; mean protection from cisplatin (shift in death) (%): -1.2
RPS6KA6 — two-siRNA summed score (-2 to +2): -1; mean protection from cisplatin (shift in death) (%): -9.7
DNAH1 — two-siRNA summed score (-2 to +2): 0; mean protection from cisplatin (shift in death) (%): -0.6
HOXB5 — two-siRNA summed score (-2 to +2): 0; mean protection from cisplatin (shift in death) (%): 13.3
SMCP — two-siRNA summed score (-2 to +2): 0; mean protection from cisplatin (shift in death) (%): 10.6
SLC47A2 — two-siRNA summed score (-2 to +2): 0; mean protection from cisplatin (shift in death) (%): 1.7

An excerpt taken from the entries so far, as a working copy:
RETREG3 — two-siRNA summed score (-2 to +2): 0; mean protection from cisplatin (shift in death) (%): 4.1
ADAMTS16 — two-siRNA summed score (-2 to +2): 0; mean protection from cisplatin (shift in death) (%): 1.7
MOXD1 — two-siRNA summed score (-2 to +2): -1; mean protection from cisplatin (shift in death) (%): -16.4
LOC400046 — two-siRNA summed score (-2 to +2): 0; mean protection from cisplatin (shift in death) (%): 10.7
LOC387883 — two-siRNA summed score (-2 to +2): 0; mean protection from cisplatin (shift in death) (%): 11.3
CENPBD2P — two-siRNA summed score (-2 to +2): 0; mean protection from cisplatin (shift in death) (%): 7.2
